Data on 10 sequences can be found in publication PMC9117268, “HDLBP binds ER-targeted mRNAs by multivalent interactions to promote protein synthesis of transmembrane and secreted proteins”.

For at least one entry, the source does not settle the construct or the ends of the probe. Weaker means in comparison with the reference protein, sequence or condition of that experiment. At least one verdict rests on a figure or table, not on a statement of the authors. Protein sequences can lack the tags named with them.

The target of one data set is T1, HDLBP construct B (KH5-9) (Homo sapiens) (UniProt Q00341).
T1 sequence (looked up, limits assumed): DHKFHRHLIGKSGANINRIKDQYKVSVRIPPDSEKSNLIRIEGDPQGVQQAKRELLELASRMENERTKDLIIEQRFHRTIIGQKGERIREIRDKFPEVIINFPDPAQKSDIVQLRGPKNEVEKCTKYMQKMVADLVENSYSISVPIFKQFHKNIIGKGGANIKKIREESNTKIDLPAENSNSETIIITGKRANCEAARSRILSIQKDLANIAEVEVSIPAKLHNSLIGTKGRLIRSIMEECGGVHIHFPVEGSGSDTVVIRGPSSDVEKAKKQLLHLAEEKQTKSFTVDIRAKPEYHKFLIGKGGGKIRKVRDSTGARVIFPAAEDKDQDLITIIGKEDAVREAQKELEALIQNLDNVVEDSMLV
In words: fluorescence anisotropy. Conditions: 20 mM Tris pH 7.5, 60 mM KCl, 1 mM EDTA, 10% glycerol, 1 ng/ul tRNA, 1 ng/ul heparin, 0.4 U/ul RNasin, 200 ng/ul BSA; 10 nM RNA probe; 20 min on ice; recombinant protein; protein details: N-terminal GST; label: 5' FAM. In general terms: In fluorescence polarisation assays a small probe gives low polarisation when free and higher when bound to something large.
On to “AAAAACUUCAAAAAACUUCAAAAAACUUCAAAAA [H44 (3x CUUC, shifted spacing)]”, for which the binding result was “binds”.
Consider “AAAAAACUUCAAAAACUUCAAAAACUUCAAAAAA [H41 (3x CUUC)]”, for which the binding result is recorded as “binds”.
The same measure, in the same setting: then “AAAAAACUUCAAAAAAAAAAAAAACUUCAAAAAA [H40 (2x CUUC)]”, with “binds more weakly”; and “AAAAAAUCUUAAAAAAAAAAAAAAUCUUAAAAAA [H42 (2x UCUU)]”, with “binds more weakly”.
On to “AAAAAAUCUUAAAAAUCUUAAAAAUCUUAAAAAA [H43 (3x UCUU)]”, for which the binding result was “binds”.

The data set is the same for the next values; noted with them: 20 mM Tris pH 7.5, 60 mM KCl, 1 mM EDTA, 10% glycerol, 1 ng/ul tRNA, 1 ng/ul heparin, 0.4 U/ul RNasin, 200 ng/ul BSA; 10 nM RNA probe; 20 min on ice; recombinant protein; protein details: N-terminal GST; label: 5' fluorescein.
On to “CCCCCUCGAUGCUCUUAGCUGAGU [18S rRNA ES6 region]”, for which the binding result is listed as “binds more weakly”.
Still for that read-out and setting: the value for “AUUCCCUUCCUUCAAUCACACUCAGUUUCCACC [TFRC_1]” was “binds”.

A further data set has as its target T2, HDLBP construct C (five C-terminal KH domains) (Homo sapiens) (UniProt Q00341).
T2 sequence (looked up, limits assumed): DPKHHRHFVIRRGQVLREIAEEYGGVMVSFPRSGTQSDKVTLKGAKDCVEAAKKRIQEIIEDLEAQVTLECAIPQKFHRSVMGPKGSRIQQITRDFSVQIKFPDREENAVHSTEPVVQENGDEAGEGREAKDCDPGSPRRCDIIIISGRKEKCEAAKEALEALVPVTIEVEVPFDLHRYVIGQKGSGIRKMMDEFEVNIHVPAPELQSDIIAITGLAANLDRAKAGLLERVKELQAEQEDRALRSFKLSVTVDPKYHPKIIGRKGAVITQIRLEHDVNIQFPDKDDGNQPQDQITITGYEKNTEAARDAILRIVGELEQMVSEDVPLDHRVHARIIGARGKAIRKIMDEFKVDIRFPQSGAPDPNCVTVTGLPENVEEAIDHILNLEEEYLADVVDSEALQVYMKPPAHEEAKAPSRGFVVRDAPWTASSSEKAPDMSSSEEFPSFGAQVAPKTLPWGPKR
In words: fluorescence anisotropy. Particulars: 20 mM Tris pH 7.5, 60 mM KCl, 1 mM EDTA, 10% glycerol, 1 ng/ul tRNA, 1 ng/ul heparin, 0.4 U/ul RNasin, 200 ng/ul BSA; 10 nM RNA probe; 20 min on ice; recombinant protein; protein details: N-terminal GST; label: 5' fluorescein.
As for “AUUCCCUUCCUUCAAUCACACUCAGUUUCCACC [TFRC_1]”, the binding result is “binds more weakly”.

The target in another data set is T3, HDLBP full-length (FL), Vigilin (Homo sapiens) (UniProt Q00341).
T3 sequence (looked up, limits assumed): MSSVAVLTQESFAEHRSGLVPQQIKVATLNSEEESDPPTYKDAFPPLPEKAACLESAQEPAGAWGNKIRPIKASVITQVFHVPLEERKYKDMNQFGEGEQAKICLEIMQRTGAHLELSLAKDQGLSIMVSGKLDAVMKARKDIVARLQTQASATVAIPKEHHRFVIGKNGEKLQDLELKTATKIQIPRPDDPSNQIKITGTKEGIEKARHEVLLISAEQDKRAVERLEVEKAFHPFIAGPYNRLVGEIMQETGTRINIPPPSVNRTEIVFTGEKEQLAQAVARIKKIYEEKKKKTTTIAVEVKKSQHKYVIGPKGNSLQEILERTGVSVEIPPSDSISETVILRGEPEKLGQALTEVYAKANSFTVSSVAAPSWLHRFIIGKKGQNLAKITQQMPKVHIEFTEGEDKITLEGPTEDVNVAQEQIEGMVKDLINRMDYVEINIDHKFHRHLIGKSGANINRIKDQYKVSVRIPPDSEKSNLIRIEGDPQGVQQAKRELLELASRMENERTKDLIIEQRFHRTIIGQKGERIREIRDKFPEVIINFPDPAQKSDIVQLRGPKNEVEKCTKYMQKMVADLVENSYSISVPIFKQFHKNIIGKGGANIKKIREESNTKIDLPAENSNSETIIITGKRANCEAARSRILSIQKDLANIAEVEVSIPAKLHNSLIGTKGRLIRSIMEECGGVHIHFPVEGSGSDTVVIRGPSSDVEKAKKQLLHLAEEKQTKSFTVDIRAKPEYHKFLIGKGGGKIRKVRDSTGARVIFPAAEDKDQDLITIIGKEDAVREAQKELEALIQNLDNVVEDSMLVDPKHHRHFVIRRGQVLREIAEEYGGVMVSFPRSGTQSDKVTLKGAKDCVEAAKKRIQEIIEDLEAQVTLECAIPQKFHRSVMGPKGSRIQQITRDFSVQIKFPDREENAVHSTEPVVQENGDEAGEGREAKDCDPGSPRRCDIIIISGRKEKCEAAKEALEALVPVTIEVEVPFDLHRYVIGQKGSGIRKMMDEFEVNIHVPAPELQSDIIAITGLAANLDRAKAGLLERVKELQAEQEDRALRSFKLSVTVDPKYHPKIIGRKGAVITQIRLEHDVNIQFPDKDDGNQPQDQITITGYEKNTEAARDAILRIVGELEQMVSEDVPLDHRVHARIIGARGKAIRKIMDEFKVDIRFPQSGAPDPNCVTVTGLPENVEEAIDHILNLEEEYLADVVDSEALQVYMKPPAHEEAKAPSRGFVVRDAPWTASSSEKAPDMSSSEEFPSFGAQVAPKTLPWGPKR
In words: fluorescence anisotropy. Particulars: 20 mM Tris pH 7.5, 60 mM KCl, 1 mM EDTA, 10% glycerol, 1 ng/ul tRNA, 1 ng/ul heparin, 0.4 U/ul RNasin, 200 ng/ul BSA; 10 nM RNA probe; 20 min on ice; recombinant protein; label: 5' fluorescein.
Regarding “CCCCCUCGAUGCUCUUAGCUGAGU [18S rRNA ES6 region]”, the binding result is recorded as “binds more weakly”.
On the same count and under the same terms, the value for “CUUCUUCUUCUUCUUCUUCUUCUUCUUCUUCUU [CUU_oligomer]” was “binds”; that for “CCUCCUCCUCCUCCUCCUCCUCCUCCUCCUCCU [CCU_oligomer]” was “binds”; that for “AAUCCCAUCCAUCAAUCACACACAGUAUCCACC [TFRC_1_mut]” was “binds more weakly”.
